# According to US7504226B2, “Methods relating to treatment of atherosclerosis” (Cambridge Theranostics Ltd., priority 2001, dated 2009):
# Read-outs that look alike come from different tables or passages of the source. At least one structure is not confirmed: it was looked up by name or label, or the drawing left a doubt.
# System: anti-Chlamydia abzymes
# Type: biochemical, human
# Set-up: key to In-vitro Inhibition: + = inhibition; − = no inhibition
structure (smiles),measurement,setting,value
"CCN(CC)C(=S)S [DDC, Diethyldithiocarbamate]",Result (inhibition of abzymes),10 μM of each agent,Positive
same,In-vitro Inhibition,"abzyme activity, metal chelators",+
CN(C)[C@@H]1C(O)=C(C(N)=O)C(=O)[C@@]2(O)C(O)=C3C(=O)c4c(O)cccc4[C@@](C)(O)[C@H]3C[C@@H]12 [Tetracycline],Result (inhibition of abzymes),,Negative
